For this assay, the target named is T1, KOR (Cavia porcellus, UniProt P41144).
T1 construct: b: performed in guinea pig whole brain membrane homogenates; from tissue; host or cells: guinea pig (LAL/HA/BR strain) whole brain membrane homogenate
Nature of the assay: Radioligand competition binding with [3H]HS665. Also noted: species or system guinea pig. Here is the method: Tris-HCl, EGTA, NaCl, MgCl2 x 6H2O, GDP, the GTP analogue GTPγS, were purchased from Sigma-Aldrich (Budapest, Hungary). Fatty acid free bovine serum albumin (BSA) was purchased from Serva (Heidelberg, Germany). Naloxone was kindly provided by the company Endo Laboratories DuPont de Nemours (Wilmington, DE, USA). HS665 was provided by Schmidhammer’s group (University of Innsbruck, Austria). […]
purchased from Tocris Bioscience (Bristol, UK).
DMSO. All compounds were stored in 1 mM stock solution at -20 °C. The radiolabelled GTP analogue, [35S]GTPγS (specific activity: 1000 Ci/mmol) were purchased from Hartmann Analytic (Braunschweig, Germany). [3H]DAMGO (specific activity: 38.8 Ci/mmol),12 [3H]IleDelt II (specific activity: 19,6 Ci/mmol), [3H]WIN55,212-2 (specific activity: 13,1 Ci/mmol) and [3H]HS665 (specific activity: 36.62 Ci/mmol),3 were radiolabeled by the Laboratory of Chemical Biology group in BRC (Szeged, Hungary).
For membrane homogenate preparations male and female Wistar rats (250-300 g body weight) and male guinea pigs (~700 g body weight, LAL/HA/BR strain) were used. Rats were housed in the local animal house of BRC (Szeged, Hungary), while guinea pigs were housed in LAB-ÁLL Bt.
(Budapest, Hungary). […]
binding was determined in the absence of unlabeled compounds. […]
(Displacement assays read how much labelled ligand stays bound in the presence of the test substance.)

SMILES strings stand for the structures.

Turning to `C[C@@H](NC(=O)[C@@H](N)Cc1ccc(O)cc1)C(=O)NCC(=O)N[C@@H](Cc1ccccc1)C(N)=O` [Compound 10, Tyr-D-Ala-Gly-Phe-NH2, reference compound], the IC50 is 575 nM and the “KOR binding affinity in words” value is “modest affinity”.

As usually defined, the IC50 is the concentration needed to halve the response being measured.

The values are drawn from publication PMC6009935 (Journal of Enzyme Inhibition and Medicinal Chemistry, 2017).
